This is an account of results in PMC7819943, “Rice protein-binding microarrays: a tool to detect cis-acting elements near promoter regions in rice”.

This is one part of the list.

The assay has as its target T1, OsSMF1 (Oryza sativa, UniProt Q6ZLB0 1-436).
T1 sequence: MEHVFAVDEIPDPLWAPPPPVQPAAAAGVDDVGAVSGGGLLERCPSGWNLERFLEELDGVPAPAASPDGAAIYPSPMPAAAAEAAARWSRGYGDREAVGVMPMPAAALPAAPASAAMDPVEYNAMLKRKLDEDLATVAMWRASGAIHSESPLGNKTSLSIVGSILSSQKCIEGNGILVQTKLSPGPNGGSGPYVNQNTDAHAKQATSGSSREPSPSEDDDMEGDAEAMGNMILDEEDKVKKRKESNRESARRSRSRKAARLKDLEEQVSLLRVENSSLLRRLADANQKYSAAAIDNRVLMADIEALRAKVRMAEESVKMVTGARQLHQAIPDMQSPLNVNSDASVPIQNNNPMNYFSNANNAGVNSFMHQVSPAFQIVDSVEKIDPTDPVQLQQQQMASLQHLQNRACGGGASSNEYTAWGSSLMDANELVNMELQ
In words: protein-binding microarray (RPBM); PBS, 2% BSA, 51.3 ng/ul salmon testes DNA, 50 uM zinc acetate, 200 nM TF, 25 C, 1 h; high values mean tight binding. Particulars: protein: recombinant; tags: N-terminal polyhistidine and DsRed monomer fusion (pET32a); chain copies: 2; label: CyDye5-dUTP incorporated in the synthesized complementary strand; 3' TTTTT single-stranded linker to array surface; dsDNA, one strand shown. In short, it runs like this: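 Binding signal is defined as the fluorescence intensity of each feature in arbitrary units, read on an Axon 4000B scanner. Transcription factors with N-terminal polyhistidine and DsRed fusions came from E. coli BL21-CodonPlus and were purified on Ni–NTA. They were incubated at 200 nM for 1 h at 25 °C on a custom Agilent array that had been made double-stranded with Cy5-dUTP, with 50 µM zinc acetate present, and the array was washed.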
Turning to “AGGGTGTGTACTTCGGGAGCAGTATGAAGTATGTGACGTGCGGAGTCACCTAGTGCAG”, the binding signal was 31400 fluorescence intensity (a.u.).

In the case of “GATGTCGTATTACGTAGACCCTCGTTCCAACGTACCCCAACGGAGTCACCTAGTGCAG”, the binding signal is 4210 fluorescence intensity (a.u.).

For “GCTCGCGTAATCACGTGTCCGCCTGGTGTATGTCCCTCTCCGGAGTCACCTAGTGCAG”, the binding signal was 4700 fluorescence intensity (a.u.).

In the case of “TATGGTGAGTCTCTTCTCGTGTTCCTTTTGACTTGTAGATCGGAGTCACCTAGTGCAG”, the binding signal was 3660 fluorescence intensity (a.u.).

Take “GATGCGTGGCGTGGCGTGGCCGCGTGACAGTGCGAGTGATCGGAGTCACCTAGTGCAG”: the binding signal was 6320 fluorescence intensity (a.u.).

In the case of “AACCTCCCCAACGGCAGGCTCATCATACGTGCGTGCTGGACGGAGTCACCTAGTGCAG”, the binding signal is 3810 fluorescence intensity (a.u.).

For “CTCGTTTTGCGTGAAACACTTAATCTTCGTCTTCAGGACACGGAGTCACCTAGTGCAG”, the binding signal is 3280 fluorescence intensity (a.u.).

Consider “TTCTCACATCACGTCACTAACCTAACAACCCTATGACGTGCGGAGTCACCTAGTGCAG”, for which the binding signal was 3840 fluorescence intensity (a.u.).

Take “GAGTCGTTATCTGCATTGATGTGTCTCCTGACTCCTGAGACGGAGTCACCTAGTGCAG”: the binding signal is 3840 fluorescence intensity (a.u.).

As to “AGTTAAACTTTCAATTTTGACGTGGAACTAAACACAGCCACGGAGTCACCTAGTGCAG”, the binding signal was 6800 fluorescence intensity (a.u.).

For “GCCCTTCACCCTGGCGAACAGCGTCACGGCTCGCCGGACGCGGAGTCACCTAGTGCAG”, the binding signal was 4140 fluorescence intensity (a.u.).

Take “TTACTCATATGAGATGGTGATGGGTCGTGGCGTGGGTCCACGGAGTCACCTAGTGCAG”: the binding signal is 3310 fluorescence intensity (a.u.).

Turning to “CGAGAGGCTTGGGAAGAGATGAGGTTGGCACGTGTGAACGCGGAGTCACCTAGTGCAG”, the binding signal was 4250 fluorescence intensity (a.u.).

Take “CGCCGTCGCCGTCGCGCTCATCCACGTCACCATGGACGAACGGAGTCACCTAGTGCAG”: the binding signal is 25300 fluorescence intensity (a.u.).

In the case of “TGAGCGGCTATCCTCCCACGATAGCCACGTGGCCGCAATCCGGAGTCACCTAGTGCAG”, the binding signal was 12500 fluorescence intensity (a.u.).

On to “TCTTTGTGTTTCCATCCAGTGAACCCCACCTCATCATTCTCGGAGTCACCTAGTGCAG”, for which the binding signal is 3810 fluorescence intensity (a.u.).

Regarding “ATACCATTAGTATATATATTATGCACGTCAGCTTTTAGCTCGGAGTCACCTAGTGCAG”, the binding signal is 11900 fluorescence intensity (a.u.).

For the sequence “TTGTTGTGTATGTTTCCAATCGGTTCGTTTGCAACGCATACGGAGTCACCTAGTGCAG”, the binding signal was 3140 fluorescence intensity (a.u.).

Consider “CCACACATCTCTCTTCCACCTAGTTTACTTCGACCTGGGCCGGAGTCACCTAGTGCAG”, for which the binding signal is 3150 fluorescence intensity (a.u.).

Regarding “GAGACAGAATCCCTACTCCAGTTGTCATCACTGTATCAGACGGAGTCACCTAGTGCAG”, the binding signal was 4020 fluorescence intensity (a.u.).

For “GTGGCACGTGGTTACACGTGAGGAAGATGTGTCTTGTGGGCGGAGTCACCTAGTGCAG”, the binding signal is 6180 fluorescence intensity (a.u.).

Take “TGCTTGCTACTAGCGAGACAACGAAGAAATCAGAGGATTTCGGAGTCACCTAGTGCAG”: the binding signal is 3520 fluorescence intensity (a.u.).

As for “ACTTTCACAGCCCCTGGTGGCCAGCCCATTAGGCAGCCCACGGAGTCACCTAGTGCAG”, the binding signal was 4650 fluorescence intensity (a.u.).

With “CACGCCAGATCGGGATCGAGGTGTCATTAGGGTTTTCTTGCGGAGTCACCTAGTGCAG”, the binding signal was 4150 fluorescence intensity (a.u.).

In the case of “GGAAAGTGATGTCACATCTAACCAATAGCAGCTTAGTCCTCGGAGTCACCTAGTGCAG”, the binding signal was 14500 fluorescence intensity (a.u.).

As for “ACCGAAGCGCCGACGTCAGCACAGAGCGTGTTCGCCTCGACGGAGTCACCTAGTGCAG”, the binding signal is 7170 fluorescence intensity (a.u.).

In the case of “GACAAGGCCTACCCAGTACCCACCTCACCCTGCCCTGCCACGGAGTCACCTAGTGCAG”, the binding signal was 4470 fluorescence intensity (a.u.).

For the sequence “AGCCGTACAACGTCATCCGGTTCTTCTTCCTCGCGCAGAACGGAGTCACCTAGTGCAG”, the binding signal was 3430 fluorescence intensity (a.u.).

Consider “CTTCGAGCTGTTAGATGACAAAGCTGACTCCACAACTTTTCGGAGTCACCTAGTGCAG”, for which the binding signal is 6340 fluorescence intensity (a.u.).

With “GATCACCTGCACCAGCAATGGCAACGCAAGCAAATCACAGCGGAGTCACCTAGTGCAG”, the binding signal was 3200 fluorescence intensity (a.u.).

In the case of “TCCGGCGCCGCACTCCGCCACGGATTCCAGCTCGGCGAGTCGGAGTCACCTAGTGCAG”, the binding signal was 3730 fluorescence intensity (a.u.).

In the case of “TGGAGTCGCTTGCGTCGCAAGCGAAGCCGGCGGCCGTGCTCGGAGTCACCTAGTGCAG”, the binding signal is 15500 fluorescence intensity (a.u.).

Consider “ACTTAACTGATCAGTAGCTACAAATGCTGACACAGCTAGGCGGAGTCACCTAGTGCAG”, for which the binding signal was 5020 fluorescence intensity (a.u.).

Regarding “ATCAAACACACTGAGTAGCAAACCGACCTCCGCAGCTTCACGGAGTCACCTAGTGCAG”, the binding signal is 3370 fluorescence intensity (a.u.).

For “TAGAGTTGCCGATGCGCTCCACGTTGGTTTCCTTAAACCGCGGAGTCACCTAGTGCAG”, the binding signal is 3520 fluorescence intensity (a.u.).

Turning to “TGCTGGCCTTTGGGATGACTGTATTGGTAATATGTGATCACGGAGTCACCTAGTGCAG”, the binding signal is 6830 fluorescence intensity (a.u.).

Regarding “TGAGCAGCTGACTGAATGTTCTTCTAATTTTGTTAATTGGCGGAGTCACCTAGTGCAG”, the binding signal was 3800 fluorescence intensity (a.u.).

On to “ACCAACGGTCTGACATCATTTCTAGATAGGACTTTGGTTGCGGAGTCACCTAGTGCAG”, for which the binding signal was 4880 fluorescence intensity (a.u.).

Consider “CCATTCAAACGGTCATCATCGTCATCTATATCTATACTAACGGAGTCACCTAGTGCAG”, for which the binding signal was 3340 fluorescence intensity (a.u.).

On to “TTGATACTACTTTGTGATGTCATTGAGACAATATGGCATACGGAGTCACCTAGTGCAG”, for which the binding signal is 3800 fluorescence intensity (a.u.).

For the sequence “AAGTGGGGAGGTACTACACGCACGATCGAGAAAACACACCCGGAGTCACCTAGTGCAG”, the binding signal is 3280 fluorescence intensity (a.u.).

Turning to “ACGATTTAGACAATGACATGATTTATAAAATATATCCTTGCGGAGTCACCTAGTGCAG”, the binding signal is 4060 fluorescence intensity (a.u.).
